Assay results published in PMC8727353.

B1: ced-6 (protein, UniProt Q7JUY7 1-517)
chain: MPYQPANSGGTSGGSKAAAKMAQLKFWNKQNSSKQQQQDKDKDAADGGNNTSGGGTGSNSNGDAKSEAKNGKRNWLHTPEQLISGHAVYLVKFFGNLSVDQPKGIEVVKEAIRKLQFAQQMKKAETGTQEKFKKLEITISIKGVAIQEPRTHKILHQFPLYNISYCADEKGVKKFFSFIAKTVKTQDGSDPTSNGHANGNGDGSAKVEESHECFVFISNKLASDITLTIGQAFDLAYRKYMDSTEKTNLSKAQQQINHLQQTVNVYKERLREVSAKLPKAELDALLFNLGIKDILEAPTTEPQNGIEVASEALSNGKLDDDKLLIDTNSTTASTHSASPSSFLPIVPPRNNLSSQISIGGKSNSQKMDELLLNSDSDSDFDPRADETQEIGGTGRSAISNMFGFEPANSFGQHLFSNNNDHKLQNNNSSLLITSNNNSINSSGFSSELNITPPLLAPPPKIAAPRRLNSVTTGNGLNGNTDLFGSDPFELNNGPNIFKQNQLNLDDFSLESLDPLRK
B2: Ras-like protein A (protein, UniProt P48555 1-201)
chain: MSKKPTAGPALHKVIMVGSGGVGKSALTLQFMYDEFVEDYEPTKADSYRKKVVLDGEEVQIDILDTAGQEDYAAIRDNYFRSGEGFLCVFSITDDESFQATQEFREQILRVKNDESIPFLLVGNKCDLNDKRKVPLSECQLRAQQWAVPYVETSAKTRENVDKVFFDLMREIRSRKTEDSKATSGRAKDRCKKRRLKCTLL
B3: Twins (protein, UniProt P36872 1-499)
chain: MGRWGRQSPVLEPPDPQMQTTPPPPTLPPRTFMRQSSITKIGNMLNTAININGAKKPASNGEASWCFSQIKGALDDDVTDADIISCVEFNHDGELLATGDKGGRVVIFQRDPASKAANPRRGEYNVYSTFQSHEPEFDYLKSLEIEEKINKIRWLQQKNPVHFLLSTNDKTVKLWKVSERDKSFGGYNTKEENGLIRDPQNVTALRVPSVKQIPLLVEASPRRTFANAHTYHINSISVNSDQETFLSADDLRINLWHLEVVNQSYNIVDIKPTNMEELTEVITAAEFHPTECNVFVYSSSKGTIRLCDMRSAALCDRHSKQFEEPENPTNRSFFSEIISSISDVKLSNSGRYMISRDYLSIKVWDLHMETKPIETYPVHEYLRAKLCSLYENDCIFDKFECCWNGKDSSIMTGSYNNFFRVFDRNSKKDVTLEASRDIIKPKTVLKPRKVCTGGKRKKDEISVDCLDFNKKILHTAWHPEENIIAVAATNNLFIFQDKF
B4: Proteasome α6 subunit (protein, UniProt P12881 1-279)
chain: MFRNQYDSDVTVWSPQGRLHQVEYAMEAVKLGTATVGLKNKDYAVLVALCKPTSELSDTQRKIIPIDDHLGISIAGLTADARVLSRYLRSECLNYKHSYDTTYPVSRLITNLGNKMQTTTQRYDRRPYGVGLLVAGYDERGPHIYQVTPSATFFNCKANSIGSRSQSARTYLEKNLNKFLDSSKDEIIRHGIRAILGTLPTDEQGKDAGQYDITVAIVGKDQPFTILSNKDSAKHVAIAKENDNDTPRNDDDDDRPSPPEEPAAGPRDPEVLVATEQRP

Molecular target: Eye transformer with a V5 tag (ET-V5) (Drosophila melanogaster)
Assay: affinity purification with mass spectrometry; Anti-V5 Agarose Affinity Gel incubated overnight at 4°C with lysates of S2 cells stably expressing ET-V5, with or without Upd1-myc; washed 6 x 10 min with PBS with protease and phosphatase inhibitors; SDS-PAGE, silver stain, in-gel trypsin digestion, LC-MS/MS; proteins also found in the negative controls (untreated S2 cells, empty pMT vector) excluded

binding, binds:
B1
B2
B3
B4

No constants are given. Whether binding was seen depends on the method and setting. In cells and extracts the contact can be indirect. These calls come from enrichment with a bait or labelling near it, and not all partners need be listed.
